Experimental data reported in paper PMC5996148.
Some of the results follow. For some of these results: The source does not settle which construct or isoform was used.

Amino acid sequences for entries named in this document (tags omitted). A change or cut given only in a name is not applied to a line headed by its entry.
UniProt P09651: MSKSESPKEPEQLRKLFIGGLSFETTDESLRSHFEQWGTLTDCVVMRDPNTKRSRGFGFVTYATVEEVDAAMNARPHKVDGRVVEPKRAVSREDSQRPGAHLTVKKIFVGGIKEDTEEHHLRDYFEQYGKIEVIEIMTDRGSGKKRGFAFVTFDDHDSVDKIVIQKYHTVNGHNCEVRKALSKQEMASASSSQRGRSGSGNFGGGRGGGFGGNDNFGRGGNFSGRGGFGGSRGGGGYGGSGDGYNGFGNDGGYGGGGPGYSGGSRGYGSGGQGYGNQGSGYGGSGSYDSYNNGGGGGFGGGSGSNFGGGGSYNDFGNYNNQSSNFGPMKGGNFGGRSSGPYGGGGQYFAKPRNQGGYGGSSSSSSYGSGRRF
UniProt P14625, whole entry: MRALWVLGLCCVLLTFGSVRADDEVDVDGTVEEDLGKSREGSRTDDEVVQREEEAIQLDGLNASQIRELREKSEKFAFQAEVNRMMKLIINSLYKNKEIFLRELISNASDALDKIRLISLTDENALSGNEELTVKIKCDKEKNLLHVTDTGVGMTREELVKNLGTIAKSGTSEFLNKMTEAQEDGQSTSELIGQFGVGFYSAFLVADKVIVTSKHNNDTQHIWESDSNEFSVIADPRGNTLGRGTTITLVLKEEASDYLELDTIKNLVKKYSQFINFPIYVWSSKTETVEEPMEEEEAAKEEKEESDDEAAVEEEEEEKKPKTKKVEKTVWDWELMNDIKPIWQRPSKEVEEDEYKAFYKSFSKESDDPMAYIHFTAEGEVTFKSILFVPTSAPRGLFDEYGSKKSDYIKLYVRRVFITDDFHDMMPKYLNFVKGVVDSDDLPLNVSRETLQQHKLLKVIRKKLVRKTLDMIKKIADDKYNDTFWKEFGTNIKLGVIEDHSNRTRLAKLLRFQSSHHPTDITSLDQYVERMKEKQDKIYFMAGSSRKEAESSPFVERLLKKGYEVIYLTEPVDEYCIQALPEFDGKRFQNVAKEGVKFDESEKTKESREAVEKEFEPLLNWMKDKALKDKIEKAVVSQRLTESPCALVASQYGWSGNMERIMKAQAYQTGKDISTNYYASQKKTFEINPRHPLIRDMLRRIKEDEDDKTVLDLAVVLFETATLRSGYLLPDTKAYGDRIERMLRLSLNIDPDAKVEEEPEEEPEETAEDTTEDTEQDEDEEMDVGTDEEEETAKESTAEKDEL
UniProt P38646: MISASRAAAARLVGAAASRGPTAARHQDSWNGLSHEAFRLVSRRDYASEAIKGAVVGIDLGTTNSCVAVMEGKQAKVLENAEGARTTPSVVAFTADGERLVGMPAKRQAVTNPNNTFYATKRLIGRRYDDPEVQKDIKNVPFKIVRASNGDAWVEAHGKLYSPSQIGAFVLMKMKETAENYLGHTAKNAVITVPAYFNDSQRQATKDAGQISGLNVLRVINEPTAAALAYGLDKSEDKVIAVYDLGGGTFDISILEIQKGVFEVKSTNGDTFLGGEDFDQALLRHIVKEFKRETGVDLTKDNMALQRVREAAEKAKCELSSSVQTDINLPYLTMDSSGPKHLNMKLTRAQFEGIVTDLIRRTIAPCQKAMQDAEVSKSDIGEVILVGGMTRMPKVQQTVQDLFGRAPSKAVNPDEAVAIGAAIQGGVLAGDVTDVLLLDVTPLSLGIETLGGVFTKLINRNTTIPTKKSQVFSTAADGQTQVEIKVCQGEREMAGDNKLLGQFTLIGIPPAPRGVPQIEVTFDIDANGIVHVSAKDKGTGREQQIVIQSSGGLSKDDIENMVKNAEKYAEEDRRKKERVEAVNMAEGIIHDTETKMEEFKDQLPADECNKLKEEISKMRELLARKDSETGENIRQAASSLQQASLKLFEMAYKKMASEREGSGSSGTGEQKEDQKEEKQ

How the values were obtained:
Assay in all cases: protein microarray (ProtoArray v5.0), streptavidin-Alexa Fluor 647
Conditions in all cases: 3'-biotin; 20 mM Tris (pH 7.5), 5 mM MgCl2, 100 mM KCl, 0.1% Tween-20, A/T-rich and random oligonucleotide blockers; temperature not stated; high values mean tight binding
HN1 (human) = tested on: HN1 (human)
HNRNPA1 = HNRNPA1 (UniProt P09651)
HP1BP3 = molecular target: T1, HP1BP3 (UniProt Q5SSJ5)
T1 sequence: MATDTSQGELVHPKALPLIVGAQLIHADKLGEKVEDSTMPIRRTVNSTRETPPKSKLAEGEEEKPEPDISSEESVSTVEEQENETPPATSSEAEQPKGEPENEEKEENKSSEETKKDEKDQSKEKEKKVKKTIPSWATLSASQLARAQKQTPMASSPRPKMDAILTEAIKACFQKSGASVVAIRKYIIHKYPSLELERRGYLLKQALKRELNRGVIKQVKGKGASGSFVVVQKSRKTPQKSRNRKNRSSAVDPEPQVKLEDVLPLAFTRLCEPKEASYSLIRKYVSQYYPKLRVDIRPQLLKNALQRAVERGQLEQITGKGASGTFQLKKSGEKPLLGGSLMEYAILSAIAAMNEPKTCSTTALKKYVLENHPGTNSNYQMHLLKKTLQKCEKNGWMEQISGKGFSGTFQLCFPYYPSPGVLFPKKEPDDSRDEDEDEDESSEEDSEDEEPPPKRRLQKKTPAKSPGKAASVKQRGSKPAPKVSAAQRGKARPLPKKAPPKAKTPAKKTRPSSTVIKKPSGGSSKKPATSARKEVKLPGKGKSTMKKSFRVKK

HPCAL1 (human) = tested on: HPCAL1 (human)
HPGD (human) = tested on: HPGD (human)
HS2ST1 (human) = tested on: HS2ST1 (human)
HS3ST1 (human) = tested on: HS3ST1 (human)
HSBP1 (human) = tested on: HSBP1 (human)
HSP90B1 = HSP90B1 (UniProt P14625)
HSPA9 = HSPA9 (UniProt P38646)

GGTGACAGGGGTATGGGGAGGGG [G4-2 biotinylated (Ct1)]
binding signal (HN1 (human)): -0.395 z-score | binding signal (HNRNPA1): 5.27 z-score | binding signal (HP1BP3): 6.79 z-score | binding signal (HPCAL1 (human)): -0.394 z-score | binding signal (HPGD (human)): -0.384 z-score | binding signal (HS2ST1 (human)): -0.372 z-score | binding signal (HS3ST1 (human)): -0.371 z-score | binding signal (HSBP1 (human)): -0.389 z-score | binding signal (HSP90B1): -0.364 z-score | binding signal (HSPA9): -0.373 z-score
